PubChem BioAssay AID1224826 | NIAID – 2016

- Screen: 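Knock-downs that raise or lower Tnf reporter signal after endotoxin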 (primary screen)
- Cell system: RAW264.7 G9 macrophages from mouse bearing reporters for p65 (GFP) and the Tnf promoter (mCherry)
- Knock-down reagent: siRNA pool against mouse genes, 100 nM
- Duration: 16 h of LPS stimulation, after 2 days of siRNA transfection
- Challenge: bacterial lipopolysaccharide (Salmonella minnesota R595), 10 ng/ml
- Measured: 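Imaged Tnf reporter mCherry in nuclei, minus background, normalised per plate to the median and expressed as robust z-scores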
- Scale: Tnf reporter robust z-score: higher = stronger Tnf promoter reporter signal after LPS
- Call rule: 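Called active when robust z-score is at most -1.3, matching the median of the Tlr4 knock-down control, or over 3; control wells and wells with under 50 cells never active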
- Calls: active = Tnf reporter clearly lowered or raised; inactive = no clear change in Tnf reporter
In all, the deposit lists about 17,000 reagents; below is a part drawn at random. About 1,110 of them (6.6%) count as active. 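Active means lowered or raised reporter signal; replicate intensities are raw and not normalised per plate.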 Further read-outs or replicates are left out here. Reagent sequences are not shown.

no.	Target gene	Tnf reporter robust z-score	fewer than 50 cells in well	activity call
1	Atp23 (GeneID 68876)	-0.36	enough cells in well	inactive
2	Clca1 (GeneID 23844)	-1.5	enough cells in well	active
3	Or7g32 (GeneID 258907)	-0.91	enough cells in well	inactive
4	Tpp2 (GeneID 22019)	-0.72	enough cells in well	inactive
5	Lca5 (GeneID 75782)		fewer than 50 cells per well; well left out of calls	inactive
6	Fam187a (GeneID 66784)	1.44	enough cells in well	inactive
7	Calca (GeneID 12310)	-0.14	enough cells in well	inactive
8	Rad50 (GeneID 19360)	1.92	enough cells in well	inactive
9	Gphb5 (GeneID 217674)		fewer than 50 cells per well; well left out of calls	inactive
10	Efhb (GeneID 211482)	1.38	enough cells in well	inactive
11	Radx (GeneID 102871)	1.87	enough cells in well	inactive
12	Slc38a10 (GeneID 72055)		fewer than 50 cells per well; well left out of calls	inactive
13	Agbl5 (GeneID 231093)	3.11	enough cells in well	active
14	Irf2bpl (GeneID 238330)	3.55	enough cells in well	active
15	Acad8 (GeneID 66948)	-0.74	enough cells in well	inactive
16	Dapp1 (GeneID 26377)	0.87	enough cells in well	inactive
17	Tti2 (GeneID 234138)	0.83	enough cells in well	inactive
18	Ifrd2 (GeneID 15983)	-1.04	enough cells in well	inactive
19	Ctsr (GeneID 56835)	-0.64	enough cells in well	inactive
20	A2m (GeneID 232345)	1.7	enough cells in well	inactive
21	Pcdhb22 (GeneID 93893)	-0.54	enough cells in well	inactive
22	Or4c110 (GeneID 258451)	-1.15	enough cells in well	inactive
23	Kctd20 (GeneID 66989)	1.22	enough cells in well	inactive
24	Apc2 (GeneID 23805)	-0.23	enough cells in well	inactive

Records above marked active:
Target gene	Tnf reporter robust z-score	fewer than 50 cells in well	activity call
Clca1 (GeneID 23844)	-1.5	enough cells in well	active
Agbl5 (GeneID 231093)	3.11	enough cells in well	active
Irf2bpl (GeneID 238330)	3.55	enough cells in well	active
